Reference: patent US20220119513A1

B1: felHclbH636x-K36 (antibody, V domains shown)
VH: QVLLVQSGAEVRRPGASVKIFCKASGYIFITYYMHWLRQAPAQGFEWMGQIFPASGSTNYNEMFEGRLTLTADTSTDTAYMELSSLRSADTAVYYCARGDGNYALDAMDYWGHGTIVTVSS
VL: DIVMTQTPLSLPVTPGEPASISCRASESVDSYGNSFMHWYLQKPGQSPRLLIYLASNLESGVPSRFSGSGSGTDFTLRISSVEADDVGVYYCQQNNEDPLTFGAGT
B2: felHclbH1-1x-K36 (antibody, V domains shown)
VH: B1 VH with R13T, L37V, A40S, F45L, D77N, V93M, H113Q, I116S
VL: B1 VL
B3: felHclbH618s-K36 (antibody, V domains shown)
VH: QVLLVQSGAEVRKPGASVKIFCKASGYTFITYYMHWLRQAPEQGLEWMGRIFPASGSTSYAQKFQGRLTLTADTSTNTAYMELSSLRSADTAMYYCARGDGNYALDAMDYWGQGALVTVSS
VL: B1 VL
B4: felHclbH618x-K36 (antibody, V domains shown)
VH: B3 VH with R50Q, S59N, A61N, Q62E, K63M, Q65E
VL: B1 VL
B5: felHclbH636x-K1-1 (antibody, V domains shown)
VH: B1 VH
VL: EIQMTQSPSSLSASPGDRVTITCRASESVDSYGNSFMHWYQQKPGKVPKLLIYLASNLESGVPSRFSGSGSGTDFTLTISSLEPEDAATYYCQQNNEDPLTFGAGT
B6: felHclbH1-1x-K1-1 (antibody, V domains shown)
VH: B1 VH with R13T, L37V, A40S, F45L, D77N, V93M, H113Q, I116S
VL: B5 VL
B7: felHclbH634x-K1-1 (antibody, V domains shown)
VH: B1 VH with R13K, A24T, I28T, M34V, D77N, H113Q, T115A, I116L
VL: B5 VL
B8: felHclbH618s-K1-1 (antibody, V domains shown)
VH: B3 VH
VL: B5 VL
B9: felHclbH618x-K1-1 (antibody, V domains shown)
VH: B3 VH with R50Q, S59N, A61N, Q62E, K63M, Q65E
VL: B5 VL
B10: felHclbH636x-K4-1 (antibody, V domains shown)
VH: B1 VH
VL: AITMTQSPGSLAGSPGQQVTMNCRASESVDSYGNSFMHWYQQKPGQHPKLLIYLASNLESGVPDRFSGSGSGTDFTLTISNLQAEDVASYYCQQNNEDPLTFGAGT
B11: felHclbH1-1x-K4-1 (antibody, V domains shown)
VH: B1 VH with R13T, L37V, A40S, F45L, D77N, V93M, H113Q, I116S
VL: B10 VL
B12: felHclbH634x-K4-1 (antibody, V domains shown)
VH: B1 VH with R13K, A24T, I28T, M34V, D77N, H113Q, T115A, I116L
VL: B10 VL
B13: felHclbH618s-K4-1 (antibody, V domains shown)
VH: B3 VH
VL: B10 VL

Columns and labels:
TGFβ1 (R&D Systems) = experiment: SPR
TGFβ2 (R&D Systems) = experiment: SPR

Binder | binding (TGFβ1 (R&D Systems)) | binding (TGFβ2 (R&D Systems))
B1 | no binding | no binding
B2 | no binding | no binding
B3 | no binding | no binding
B4 | no binding | no binding
B5 | no binding | no binding
B6 | no binding | no binding
B7 | no binding | no binding
B8 | no binding | no binding
B9 | no binding | no binding
B10 | no binding | no binding
B11 | no binding | no binding
B12 | no binding | no binding
B13 | no binding | no binding

Residue numbers refer to the chain shown, from its start. No constants are given. Whether binding was seen depends on the method and setting.
